{
  "source": "paper PMC7716261",
  "binders": {"B1": {"name": "Δ18PA1624 (hypothetical periplasmic protein PA1624 from Pseudomonas aeruginosa PAO1 without its periplasmic localization signal) (protein)", "chain": "GPHMADLPGSHDLDILPRFPRAEIVDFRQAPSEERIYPLGAISRISGRLRMEGEVRAEGELTALTYRLPPEHSSQEAFAAARTALLKADATPLFWCERRDCGSSSLLANAVFGNAKLYGPDEQQAYLLVRLAAPQENSLVAVYSITRGNRRAYLQAEELKADAPLAELLPSPATLLRLLKANGELTLSHVPAEPAGSWLELLVRTLRLDTGVRVELSGKHAQEWRDALRGQGVLNSRMELGQSEVEGLHLNWLR"}},
  "target": "Δ18PA1624 (hypothetical periplasmic protein PA1624 from Pseudomonas aeruginosa PAO1 without its periplasmic localization signal) (P. aeruginosa PAO1)",
  "assay": "SEC; size-exclusion chromatography during purification, Superdex 26/600 S75 prep-grade column, buffer GF (50 mM HEPES, 150 mM NaCl pH 8.0); both purified",
  "note": "Results are given in words; binding and its absence hold for the method and conditions named.",
  "data": [
    {"binder": "B1", "values": [
      {"measurement": "binding", "value": "no binding"}
    ]}
  ]
}
